Our source for the binding values is article PMC10039855.

Chains of the proteins cited; added tags and fusions are not shown.
UniProt Q96NG8: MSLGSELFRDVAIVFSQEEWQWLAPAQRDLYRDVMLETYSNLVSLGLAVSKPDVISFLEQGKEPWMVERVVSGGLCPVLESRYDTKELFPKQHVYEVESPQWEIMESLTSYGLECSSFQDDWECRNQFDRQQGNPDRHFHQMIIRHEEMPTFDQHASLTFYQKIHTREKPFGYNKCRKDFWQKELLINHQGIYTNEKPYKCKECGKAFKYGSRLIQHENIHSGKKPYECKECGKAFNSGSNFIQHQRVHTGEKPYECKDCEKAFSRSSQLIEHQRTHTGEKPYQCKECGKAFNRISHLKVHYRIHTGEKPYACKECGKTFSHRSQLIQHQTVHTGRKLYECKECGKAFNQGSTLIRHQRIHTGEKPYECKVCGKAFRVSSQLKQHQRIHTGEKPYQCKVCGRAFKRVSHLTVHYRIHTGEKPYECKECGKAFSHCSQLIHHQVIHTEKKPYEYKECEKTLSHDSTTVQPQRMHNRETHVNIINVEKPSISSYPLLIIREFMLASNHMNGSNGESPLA
UniProt P28482: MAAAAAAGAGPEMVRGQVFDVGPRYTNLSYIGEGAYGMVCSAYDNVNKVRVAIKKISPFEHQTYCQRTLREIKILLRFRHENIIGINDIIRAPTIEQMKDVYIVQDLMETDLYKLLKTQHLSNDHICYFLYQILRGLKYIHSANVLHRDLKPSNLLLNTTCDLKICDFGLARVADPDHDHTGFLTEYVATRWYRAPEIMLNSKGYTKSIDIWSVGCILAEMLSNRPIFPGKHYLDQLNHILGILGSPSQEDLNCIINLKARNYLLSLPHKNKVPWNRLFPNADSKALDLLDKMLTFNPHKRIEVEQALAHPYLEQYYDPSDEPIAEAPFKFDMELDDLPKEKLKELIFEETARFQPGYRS

The target of experiment [1] is Zinc finger protein 582 (ZNF582), overexpressed with 3x Flag (UniProt Q96NG8). Nature of the experiment: co-IP; anti-Flag M2 magnetic beads added to the supernatant of OSRC2 or Caki-1 cell lysates (IP lysis buffer), overnight at 4 °C, washed three times with lysis buffer; Western Blot; overexpression group against control group. For orientation: A western blot detects proteins with antibodies after separation by electrophoresis.

The target of experiment [2] is T1, TJP2, overexpressed with 3x Flag (UniProt Q9UDY2).
T1 sequence: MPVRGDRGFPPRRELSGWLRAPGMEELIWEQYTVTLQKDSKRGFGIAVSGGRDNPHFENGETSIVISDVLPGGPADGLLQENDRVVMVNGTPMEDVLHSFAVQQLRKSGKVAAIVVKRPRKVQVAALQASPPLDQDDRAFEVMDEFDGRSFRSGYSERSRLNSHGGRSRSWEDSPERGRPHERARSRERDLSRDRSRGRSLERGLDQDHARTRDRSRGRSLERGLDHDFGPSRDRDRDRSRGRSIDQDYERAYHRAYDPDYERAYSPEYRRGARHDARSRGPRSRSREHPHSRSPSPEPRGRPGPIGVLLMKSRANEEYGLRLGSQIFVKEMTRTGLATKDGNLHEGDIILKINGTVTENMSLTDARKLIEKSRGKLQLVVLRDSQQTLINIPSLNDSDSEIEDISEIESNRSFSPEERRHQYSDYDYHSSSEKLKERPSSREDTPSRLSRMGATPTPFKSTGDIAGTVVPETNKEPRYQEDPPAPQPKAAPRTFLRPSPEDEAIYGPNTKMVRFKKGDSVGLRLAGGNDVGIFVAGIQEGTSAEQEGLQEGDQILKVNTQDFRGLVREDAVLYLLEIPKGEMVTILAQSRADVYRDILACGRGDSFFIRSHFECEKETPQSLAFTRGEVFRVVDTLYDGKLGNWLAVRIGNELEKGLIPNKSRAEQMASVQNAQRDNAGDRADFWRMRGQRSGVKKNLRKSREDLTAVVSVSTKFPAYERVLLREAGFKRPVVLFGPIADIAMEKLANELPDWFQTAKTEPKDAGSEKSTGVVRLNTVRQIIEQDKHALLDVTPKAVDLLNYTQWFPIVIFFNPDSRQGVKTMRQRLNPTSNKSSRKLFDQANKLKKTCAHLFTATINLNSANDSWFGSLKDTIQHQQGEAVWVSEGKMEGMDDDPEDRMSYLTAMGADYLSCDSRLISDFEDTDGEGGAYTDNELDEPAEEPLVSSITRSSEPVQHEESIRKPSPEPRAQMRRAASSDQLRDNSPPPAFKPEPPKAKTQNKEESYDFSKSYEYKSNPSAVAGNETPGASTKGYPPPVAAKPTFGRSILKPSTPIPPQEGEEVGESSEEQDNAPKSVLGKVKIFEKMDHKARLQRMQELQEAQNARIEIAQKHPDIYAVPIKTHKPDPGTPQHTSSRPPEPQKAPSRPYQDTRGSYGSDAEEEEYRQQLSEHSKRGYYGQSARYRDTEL
The description is as above.

Results are given in words; binding and its absence hold for the method and conditions named. Binding seen in cells or lysates may run through a third protein. Some entries that bind do so weakly or less than the wild type. For some of these results: Where a sequence is shown, tags or fusion partners need not be part of it.

For “ERK2 protein, endogenous in ccRCC cells (from UniProt P28482 1-360)”, the binding entry in experiment [1] and in experiment [2] was “binds” throughout. For the molecule “ZNF582 protein, endogenous in ccRCC cells (from UniProt Q96NG8 1-517)”, the binding result in experiment [2] is “binds”.

B1: TJP2 protein, endogenous in ccRCC cells (protein, UniProt Q9UDY2 1-1190)
chain: MPVRGDRGFPPRRELSGWLRAPGMEELIWEQYTVTLQKDSKRGFGIAVSGGRDNPHFENGETSIVISDVLPGGPADGLLQENDRVVMVNGTPMEDVLHSFAVQQLRKSGKVAAIVVKRPRKVQVAALQASPPLDQDDRAFEVMDEFDGRSFRSGYSERSRLNSHGGRSRSWEDSPERGRPHERARSRERDLSRDRSRGRSLERGLDQDHARTRDRSRGRSLERGLDHDFGPSRDRDRDRSRGRSIDQDYERAYHRAYDPDYERAYSPEYRRGARHDARSRGPRSRSREHPHSRSPSPEPRGRPGPIGVLLMKSRANEEYGLRLGSQIFVKEMTRTGLATKDGNLHEGDIILKINGTVTENMSLTDARKLIEKSRGKLQLVVLRDSQQTLINIPSLNDSDSEIEDISEIESNRSFSPEERRHQYSDYDYHSSSEKLKERPSSREDTPSRLSRMGATPTPFKSTGDIAGTVVPETNKEPRYQEDPPAPQPKAAPRTFLRPSPEDEAIYGPNTKMVRFKKGDSVGLRLAGGNDVGIFVAGIQEGTSAEQEGLQEGDQILKVNTQDFRGLVREDAVLYLLEIPKGEMVTILAQSRADVYRDILACGRGDSFFIRSHFECEKETPQSLAFTRGEVFRVVDTLYDGKLGNWLAVRIGNELEKGLIPNKSRAEQMASVQNAQRDNAGDRADFWRMRGQRSGVKKNLRKSREDLTAVVSVSTKFPAYERVLLREAGFKRPVVLFGPIADIAMEKLANELPDWFQTAKTEPKDAGSEKSTGVVRLNTVRQIIEQDKHALLDVTPKAVDLLNYTQWFPIVIFFNPDSRQGVKTMRQRLNPTSNKSSRKLFDQANKLKKTCAHLFTATINLNSANDSWFGSLKDTIQHQQGEAVWVSEGKMEGMDDDPEDRMSYLTAMGADYLSCDSRLISDFEDTDGEGGAYTDNELDEPAEEPLVSSITRSSEPVQHEESIRKPSPEPRAQMRRAASSDQLRDNSPPPAFKPEPPKAKTQNKEESYDFSKSYEYKSNPSAVAGNETPGASTKGYPPPVAAKPTFGRSILKPSTPIPPQEGEEVGESSEEQDNAPKSVLGKVKIFEKMDHKARLQRMQELQEAQNARIEIAQKHPDIYAVPIKTHKPDPGTPQHTSSRPPEPQKAPSRPYQDTRGSYGSDAEEEEYRQQLSEHSKRGYYGQSARYRDTEL
Take B1: the binding entry in experiment [1] was “binds”.
